# Results taken from paper doi:10.1101/2022.03.08.483512.
# Assays:
# [1] = biological target: human GABAA receptor α1 subunit carrying the A322D variant (human); experiment: co-IP
# [2] = biological target: human GABAA receptor α1 subunit, wild type (human); experiment: co-IP
Binder,binding [1],binding [2]
"UNC45A (protein, UniProt Q9H3U1 1-944) MTVSGPGTPEPRPATPGASSVEQLRKEGNELFKCGDYGGALAAYTQALGLDATPQDQAVLHRNRAACHLKLEDYDKAETEASKAIEKDGGDVKALYRRSQALEKLGRLDQAVLDLQRCVSLEPKNKVFQEALRNIGGQIQEKVRYMSSTDAKVEQMFQILLDPEEKGTEKKQKASQNLVVLAREDAGAEKIFRSNGVQLLQRLLDMGETDLMLAALRTLVGICSEHQSRTVATLSILGTRRVVSILGVESQAVSLAACHLLQVMFDALKEGVKKGFRGKEGAIIVDPARELKVLISNLLDLLTEVGVSGQGRDNALTLLIKAVPRKSLKDPNNSLTLWVIDQGLKKILEVGGSLQDPPGELAVTANSRMSASILLSKLFDDLKCDAERENFHRLCENYIKSWFEGQGLAGKLRAIQTVSCLLQGPCDAGNRALELSGVMESVIALCASEQEEEQLVAVEALIHAAGKAKRASFITANGVSLLKDLYKCSEKDSIRIRALVGLCKLGSAGGTDFSMKQFAEGSTLKLAKQCRKWLCNDQIDAGTRRWAVEGLAYLTFDADVKEEFVEDAAALKALFQLSRLEERSVLFAVASALVNCTNSYDYEEPDPKMVELAKYAKQHVPEQHPKDKPSFVRARVKKLLAAGVVSAMVCMVKTESPVLTSSCRELLSRVFLALVEEVEDRGTVVAQGGGRALIPLALEGTDVGQTKAAQALAKLTITSNPEMTFPGERIYEVVRPLVSLLHLNCSGLQNFEALMALTNLAGISERLRQKILKEKAVPMIEGYMFEEHEMIRRAATECMCNLAMSKEVQDLFEAQGNDRLKLLVLYSGEDDELLQRAAAGGLAMLTSMRPTLCSRIPQVTTHWLEILQALLLSSNQELQHRGAVVVLNMVEASREIASTLMESEMMEILSVLAKGDHSPVTRAAAACLDKAVEYGLIQPNQDGE",binds,binds
"ERLIN2 (protein, UniProt O94905 1-339) MAQLGAVVAVASSFFCASLFSAVHKIEEGHIGVYYRGGALLTSTSGPGFHLMLPFITSYKSVQTTLQTDEVKNVPCGTSGGVMIYFDRIEVVNFLVPNAVYDIVKNYTADYDKALIFNKIHHELNQFCSVHTLQEVYIELFDQIDENLKLALQQDLTSMAPGLVIQAVRVTKPNIPEAIRRNYELMESEKTKLLIAAQKQKVVEKEAETERKKALIEAEKVAQVAEITYGQKVMEKETEKKISEIEDAAFLAREKAKADAECYTAMKIAEANKLKLTPEYLQLMKYKAIASNSKIYFGKDIPNMFMDSAGSVSKQFEGLADKLSFGLEDEPLETATKEN",binds,binds

# Results are given in words; binding and its absence hold for the method and conditions named. In cells and extracts the contact can be indirect. Binding can be weak; no strength is given.
